Activity change, negative = inhibition data for 30 compounds are collected here from PubChem BioAssay AID651803 (National Center for Advancing Translational Sciences (NCATS), 2012).

Chains of the proteins cited; added tags and fusions are not shown. Lines headed by an entry give the natural chain unless they say otherwise; changes in a name come on top.
UniProt P11308: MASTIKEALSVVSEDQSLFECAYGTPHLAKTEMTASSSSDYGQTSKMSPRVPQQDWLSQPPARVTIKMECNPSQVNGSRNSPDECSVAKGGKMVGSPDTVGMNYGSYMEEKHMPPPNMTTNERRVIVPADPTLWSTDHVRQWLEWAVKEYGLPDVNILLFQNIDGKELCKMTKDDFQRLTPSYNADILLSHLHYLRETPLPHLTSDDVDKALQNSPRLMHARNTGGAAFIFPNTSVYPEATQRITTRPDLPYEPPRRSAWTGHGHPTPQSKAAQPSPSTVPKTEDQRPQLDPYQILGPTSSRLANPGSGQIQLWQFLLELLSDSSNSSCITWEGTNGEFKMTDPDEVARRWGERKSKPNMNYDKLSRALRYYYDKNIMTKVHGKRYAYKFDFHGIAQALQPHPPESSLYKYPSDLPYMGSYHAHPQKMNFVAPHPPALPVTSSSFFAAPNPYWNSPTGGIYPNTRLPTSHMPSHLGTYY

Several values for one entry are separate records, joined by “and”; a condition that tells them apart may be missing. Equal values may be shown once. Out of some 1,200 compounds screened, fewer than 10 were called active. The call rests on the fitted dose curve; in most records, active means well fitted curve in the direction sought with a large enough effect; inconclusive means small, poorly fitted or top-dose-only effect, or another doubt; inactive means no such curve, though single readings can be large or run the other way. The list shows a part of the results.

In the assay the target is Transcriptional regulator ERG (Homo sapiens) (UniProt P11308). Briefly: qHTS for Small Molecule Inhibitors of the ERG Ets/DNA interaction: TR assay against cherry picks. Further: % of control where 0% means no effect. To be noted: ERG Ets domain-DNA fluorescence polarization, Texas red probe; at 154 µM (top of the series). From the text:
The Ets family of proteins is a family of ~30 conserved transcription factors defined by the presence of an ~85 amino acid domain referred to as the Ets domain, which mediates sequence-specific DNA binding to a core DNA element GGAA/T.The Ets family member ERG has been linked to several neoplasms. […] More extensive studies of the effects of over-expression of ERG in prostate cells have recently been carried out and have shown that over-expression of ERG results in increased invasion. […] We will carry out a high throughout screen to identify inhibitors of the interaction between ERG and DNA using a fluorescence polarization (FP) assay with a His-tagged ERG Ets domain and fluorescently-labeled DNA probes to develop small molecule inhibitors of this interaction as probes to test this hypothesis and lay the groundwork for the development of targeted therapies against ERG. This is the confirmation against the cherry picks in theprimary screening assay. NIH Molecular Libraries Probe Production Network [MLPCN] NIH Chemical Genomics Center [NCGC] Grant: NS066464 PI Name: John Bushweller, University of Virgina
1.5 ul of protein solution (1 uM ERG domain in 300mM KCl, 50mM Tris-HCl, 1mM EDTA, 1mM DTT, pH 7.5); 20 nl Control plate and compound library plate; 1.5 ul mixture of 5 nM Fluorescein-DNA and 100nM Texas-615-DNA solution in same buffer as above solution; measure fluorescence polarization sequentially for fluorescein (Excitation = 480 nm, Emission = 535s, 535p nm) and Texas red (Excitation = 555 nm, Emission = 632s, 632p nm).
In the case of `COc1cccc(-n2c(/C=C/c3cccc(C)c3)nc3ccccc3c2=O)c1`, the activity change, negative = inhibition was inactive: -0.532%.

For `O=C(CCc1nnc2ccc(NCc3ccccc3Cl)nn12)N1CCC2(CC1)OCCO2`, the activity change, negative = inhibition is inactive: 6.17%.

On to `N#CCN1CCN(c2ccc(C(F)(F)F)cc2)CC1`, for which the activity change, negative = inhibition is inactive: -8.11%.

Turning to `CN1C[C@@H]2C[C@@H](c3cccn3-c3ccccn3)N3CCC[C@@]23C1=O`, the activity change, negative = inhibition was inactive: 8.76%.

With `NC(=O)Cn1cc(C=C2C(=O)NC(=O)NC2=O)c2ccccc21`, the activity change, negative = inhibition is inactive: 0.488%.

For `OC(COCc1ccc(Cl)cc1)CN1CC=C(c2ccccc2)CC1` (stereo not given), the activity change, negative = inhibition was inactive: 0.282%.

For `CC12CC3CC(C)(C1)CC(N)(C3)C2`, the activity change, negative = inhibition is inactive: -11.6%.

As for `Cc1ccc(-c2nc3ccccc3c(=O)n2-c2cccc(O)c2)cc1`, the activity change, negative = inhibition was inactive: 14.3%.

As for `CN1CCc2cccc(Cl)c2CC1`, the activity change, negative = inhibition was inactive: 0.773%.

On to `C[C@]12CCC(=O)C=C1CC[C@@H]1[C@@H]2CC[C@@]2(C)[C@H]1CC[C@]2(C)O`, for which the activity change, negative = inhibition was inactive: 3.26%.

For `CC(=O)N1CC(=O)Nc2ccc(F)cc2C1c1ccccc1` (stereo not given), the activity change, negative = inhibition was inactive: -2.99%.

In the case of `CC(C)N1CCN(Cc2ccccc2C(F)(F)F)CC1CCO` (stereo not given), the activity change, negative = inhibition is inactive: -12.5%.

For the compound `COc1ccc2[nH]c(C)c(CCNCc3cccnc3)c2c1`, the activity change, negative = inhibition is inactive: 4.76%.

`O=c1c2ccccc2nc(-c2ccco2)n1-c1ccccc1`: the activity change, negative = inhibition is inactive: -18.9%.

On to `COc1ccc(C(c2ccc(OC)cc2)C(Cl)(Cl)Cl)cc1`, for which the activity change, negative = inhibition was inactive: 2.21%.

In the case of `C=C1C2C[C@@]3([C@@H]1O)[C@@H](C[C@@H]2O)[C@@]12C4[C@@H]3C[C@@H]1[C@@](C)(CC[C@@H]2O)CN4CC`, the activity change, negative = inhibition is inactive: 8.35%.

As to `O=C(CN1CC=C(c2ccccc2)CC1)Nc1cc(Cl)ccc1Cl`, the activity change, negative = inhibition was inactive: -8.17%.

For the compound `COc1ccccc1N1CCN(CCc2c[nH]c3cc4c(cc23)OCO4)CC1`, the activity change, negative = inhibition is inactive: -9.36%.

On to `O=C(Cc1ccccc1)Oc1ccc([N+](=O)[O-])cc1`, for which the activity change, negative = inhibition is inactive: 4.7%.

In the case of `O=C(COc1ccccc1)NCCc1cnc[nH]1`, the activity change, negative = inhibition is inactive: -4.24%.

On to `C[N+]1(C)[C@@H]2CC[C@H]1CC(OC(=O)C(CO)c1ccccc1)C2` (stereo not given in full), for which the activity change, negative = inhibition was inactive: 3.7%.

As to `CC(=O)C1(c2ccccc2)CCN(C(=O)C2CCC(=O)N(CCc3cccc(F)c3)C2)CC1` (stereo not given), the activity change, negative = inhibition was inactive: -1.22%.

On to `COc1cc(C[C@@H](C)N)c(OC)cc1I`, for which the activity change, negative = inhibition was inactive: -8.87%.

In the case of `Nc1ccc2nonc2c1[N+](=O)[O-]`, the activity change, negative = inhibition is inactive: 36.1%.

Turning to `COc1cc(C(c2c(O)c3ccccc3oc2=O)c2c(C)n(C)n(-c3ccccc3)c2=O)ccc1O` (stereo not given), the activity change, negative = inhibition was inactive: -12%.

Regarding `CN1[C@@H]2CCC[C@H]1CC(=O)C2`, the activity change, negative = inhibition is inactive: 2.19%.

`COC(=O)NC(=C(Cl)Cl)P(=O)(c1ccccc1)c1ccccc1`: the activity change, negative = inhibition is inactive: 2.4%.

On to `NCCc1cc(O)c(O)cc1O`, for which the activity change, negative = inhibition was inactive: 39.4% and inactive: 1.72%.

As for `C[C@]12CCC(=O)C[C@@H]1CC[C@@H]1[C@@H]2CC[C@]2(C)[C@@H](O)CC[C@@H]12`, the activity change, negative = inhibition was inactive: -2.65%.

On to `CC(C)(O)/C=C/C(=O)C(C)(O)C1C(O)CC2(C)C3CC=C4C(C=C(O)C(=O)C4(C)C)C3(C)C(=O)CC12C` (stereo not given), for which the activity change, negative = inhibition was inactive: 4.23%.
